Data as given in PubChem BioAssay AID1259405 (NCATS, 2018)
This is a random part of about 50,000 reagents tested. About 4,000 of them (8%) were called active. 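Mouse siRNA library applied to hamster cells; one well for each siRNA.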 Reagent sequences are not shown.

- Assay: 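Knock-downs that lift recombinant protein yield in hamster ovary cells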 (primary screen)
- Cells: Chinese hamster CHO-K1 ovary cells with stable secreted eGFP expression
- Reagent: single siRNA against mouse genes, 0.8 pmol siRNA per well (2 µl of 400 nM stock)
- Timing: 3 days
- Read-out: 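Per-well intracellular GFP measured by laser scanning cytometry, plus viability from ATP luminescence, each relative to plate median of non-targeting control wells, in %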
- Direction: GFP, % of control: higher = more GFP per well, higher productivity; viability (ATP), % of control: higher = more viable cells (more ATP)
- Active means: 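a knock-down is called active if GFP reaches 120% or more of non-targeting control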

no.	target	PubChem SID	GFP, % of control	viability (ATP), % of control	activity call
1	Nme5 (NME/NM23 family member 5)	SID363570772	90.3	81.3	inactive
2	Vasp (vasodilator-stimulated phosphoprotein)	SID363556805	60.2	79.1	inactive
3	Vasp (vasodilator-stimulated phosphoprotein)	SID363563709	102	95.7	inactive
4	Vasp (vasodilator-stimulated phosphoprotein)	SID363587255	89.5	86	inactive
5	Cyp2c50 (cytochrome P450, family 2, subfamily c, polypeptide 50)	SID363547698	95.3	62	inactive
6	Cyp2c50 (cytochrome P450, family 2, subfamily c, polypeptide 50)	SID363558467	71.1	83.1	inactive
7	Cyp2c50 (cytochrome P450, family 2, subfamily c, polypeptide 50)	SID363560225	77.7	72.8	inactive
8	Tnfaip6 (tumor necrosis factor alpha induced protein 6)	SID363573360	98.7	56.7	inactive
9	Tnfaip6 (tumor necrosis factor alpha induced protein 6)	SID363588599	108	93.4	inactive
10	Nopchap1 (NOP protein chaperone 1)	SID363550053	77.3	86.4	inactive
11	Nopchap1 (NOP protein chaperone 1)	SID363564562	51	73.2	inactive
12	Nopchap1 (NOP protein chaperone 1)	SID363588107	80.8	97.2	inactive
13	Polr2g (polymerase (RNA) II (DNA directed) polypeptide G)	SID363570154	78.4	80.7	inactive
14	Polr2g (polymerase (RNA) II (DNA directed) polypeptide G)	SID363576490	64.6	23.8	inactive
15	Polr2g (polymerase (RNA) II (DNA directed) polypeptide G)	SID363579658	107	35.2	inactive
16	Id1 (inhibitor of DNA binding 1, HLH protein)	SID363555252	51.1	29	inactive
17	Id1 (inhibitor of DNA binding 1, HLH protein)	SID363563913	65	56	inactive
18	Id1 (inhibitor of DNA binding 1, HLH protein)	SID363587459	82.9	86.7	inactive
19	Sbno2 (strawberry notch 2)	SID363545512	104	88.4	inactive
20	Sbno2 (strawberry notch 2)	SID363549025	67.4	83.7	inactive
21	Sbno2 (strawberry notch 2)	SID363562831	93.3	79.4	inactive
22	Eapp (E2F-associated phosphoprotein)	SID363543576	78.6	88.5	inactive
23	Eapp (E2F-associated phosphoprotein)	SID363553069	58.7	30.3	inactive
24	Eapp (E2F-associated phosphoprotein)	SID363558917	59.4	82.5	inactive
25	Efnb2 (ephrin B2)	SID363541512	62.6	73.9	inactive
26	Efnb2 (ephrin B2)	SID363556139	105	83.1	inactive
27	Efnb2 (ephrin B2)	SID363566428	85.4	64.4	inactive

Laid out differently: results already given
target,PubChem SID,"GFP, % of control","viability (ATP), % of control",activity call
Eapp (E2F-associated phosphoprotein),SID363553069,58.7,30.3,inactive
Eapp (E2F-associated phosphoprotein),SID363558917,59.4,82.5,inactive
Efnb2 (ephrin B2),SID363541512,62.6,73.9,inactive
Efnb2 (ephrin B2),SID363556139,105,83.1,inactive

Continued.
no.	target	PubChem SID	GFP, % of control	viability (ATP), % of control	activity call
28	Nfkb2	SID363573811	104	112	inactive
29	Nfkb2	SID363581555	63	64.4	inactive
30	Nfkb2	SID363584019	104	118	inactive
31	Or5k1 (olfactory receptor family 5 subfamily K member 1)	SID363554328	71	84.6	inactive
32	Or5k1 (olfactory receptor family 5 subfamily K member 1)	SID363567775	84.9	80.1	inactive
33	Or5k1 (olfactory receptor family 5 subfamily K member 1)	SID363585132	71.4	113	inactive
34	Inpp5a (inositol polyphosphate-5-phosphatase A)	SID363575110	88.4	47.1	inactive
35	Inpp5a (inositol polyphosphate-5-phosphatase A)	SID363580742	75.1	56.5	inactive
36	Inpp5a (inositol polyphosphate-5-phosphatase A)	SID363582854	90.8	77.3	inactive
37	Pdgfc (platelet-derived growth factor, C polypeptide)	SID363541806	68.8	74.5	inactive
38	Pdgfc (platelet-derived growth factor, C polypeptide)	SID363553398	77.3	76.8	inactive
39	Pdgfc (platelet-derived growth factor, C polypeptide)	SID363566722	52	76	inactive
40	Syt8 (synaptotagmin VIII)	SID363553728	101	54.9	inactive
41	Syt8 (synaptotagmin VIII)	SID363561685	160	83.7	active
42	Syt8 (synaptotagmin VIII)	SID363565423	110	54.8	inactive
43	Aplp2 (amyloid beta precursor-like protein 2)	SID363546794	129	73.4	active
44	Aplp2 (amyloid beta precursor-like protein 2)	SID363548550	76.6	79.6	inactive
45	Aplp2 (amyloid beta precursor-like protein 2)	SID363560728	108	70.7	inactive
46	Rangrf (RAN guanine nucleotide release factor)	SID363554880	42.2	26.9	inactive
47	Rangrf (RAN guanine nucleotide release factor)	SID363568327	85.1	75.5	inactive
48	Rangrf (RAN guanine nucleotide release factor)	SID363586386	51.4	51.3	inactive
49	Acnat2 (acyl-coenzyme A amino acid N-acyltransferase 2)	SID363550039	76.8	88.8	inactive
50	Acnat2 (acyl-coenzyme A amino acid N-acyltransferase 2)	SID363564548	81.3	56.3	inactive
51	Acnat2 (acyl-coenzyme A amino acid N-acyltransferase 2)	SID363588093	115	105	inactive
52	Ublcp1 (ubiquitin-like domain containing CTD phosphatase 1)	SID363546641	87.4	66.6	inactive
53	Ublcp1 (ubiquitin-like domain containing CTD phosphatase 1)	SID363548397	78.6	88	inactive
54	Ublcp1 (ubiquitin-like domain containing CTD phosphatase 1)	SID363560575	82.9	48.4	inactive
55	Slc10a6	SID363574890	99.7	78.8	inactive
56	Slc10a6	SID363575946	51.5	43.3	inactive
57	Slc10a6	SID363580522	96.7	86.3	inactive
